Data as given in PubChem BioAssay AID1259405 (NCATS, 2018).
In all, the deposit lists about 50,000 reagents; below is an unselected part. About 4,000 of them (8%) count as active. 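Mouse siRNA library applied to hamster cells; one well for each siRNA.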 Entries without a mark were called inactive. The numbers tell different reagents against one gene apart. Reagent sequences are not shown.

Aim: 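Knock-downs that lift recombinant protein yield in hamster ovary cells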 (primary screen)
Cell system: Chinese hamster CHO-K1 ovary cells with stable secreted eGFP expression
Reagent: single siRNA against mouse genes, 0.8 pmol siRNA per well (2 µl of 400 nM stock)
Time to read-out: 3 days
Detection: 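Percent of the per-plate non-targeting control median for intracellular GFP per well by laser scanning cytometry and for cell viability by ATP luminescence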
Scale: GFP, % of control: higher = more GFP per well, higher productivity; viability (ATP), % of control: higher = more viable cells (more ATP)
Active means: 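a knock-down is called active if GFP reaches 120% or more of non-targeting control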

no.	gene	reagent no.	GFP, % of control	viability (ATP), % of control
1	Shkbp1 (Sh3kbp1 binding protein 1)	1	21.5	19.3
2	Shkbp1 (Sh3kbp1 binding protein 1)	2	80.2	82.9
3	Shkbp1 (Sh3kbp1 binding protein 1)	3	64.4	72.2
4	Or51k2 (olfactory receptor family 51 subfamily K member 2)	1	48.8	38.6
5	Or51k2 (olfactory receptor family 51 subfamily K member 2)	2	87.5	78.1
6	Or51k2 (olfactory receptor family 51 subfamily K member 2)	3	41	47.9
7	Lrrc26 (leucine rich repeat containing 26)	1	79.3	58.1
8	Lrrc26 (leucine rich repeat containing 26)	2	69.6	54.9
9	Lrrc26 (leucine rich repeat containing 26)	3	62.3	71.9
10	Iah1 (isoamyl acetate-hydrolyzing esterase 1 homolog)	1	92	74.6
11	Iah1 (isoamyl acetate-hydrolyzing esterase 1 homolog)	2	82.9	54.4
12	Iah1 (isoamyl acetate-hydrolyzing esterase 1 homolog)	3	79.3	75.3
13	Ceacam13 (CEA cell adhesion molecule 13)	1	65.3	55.8
14	Ceacam13 (CEA cell adhesion molecule 13)	2	116	63.1
15	Ceacam13 (CEA cell adhesion molecule 13)	3	88.7	72.1
16	Cdkn1b (cyclin dependent kinase inhibitor 1B)	1	53.9	64
17	Cdkn1b (cyclin dependent kinase inhibitor 1B)	2	77.9	63
18	Prss35 (serine protease 35)	1	71.6	105
19	Prss35 (serine protease 35)	2	101	71.9
20	Ppp1r12c (protein phosphatase 1, regulatory subunit 12C)	1	98.2	93.9
21	Ppp1r12c (protein phosphatase 1, regulatory subunit 12C)	2	88.1	54.5
22	Ppp1r12c (protein phosphatase 1, regulatory subunit 12C)	3	92.5	86.7
23	Crk (Crk proto-oncogene, adaptor protein)	1	87.8	104
24	Crk (Crk proto-oncogene, adaptor protein)	2	78.7	88.4
25	Crk (Crk proto-oncogene, adaptor protein)	3	127 (active)	147
26	Arf1 (ARF GTPase 1)	1	58.1	67.5
27	Arf1 (ARF GTPase 1)	2	54.7	57.1
28	Arf1 (ARF GTPase 1)	3	51.8	74.7
29	Dnmt3b (DNA methyltransferase 3B)	1	95.6	103
30	Dnmt3b (DNA methyltransferase 3B)	2	102	78.6
31	Dnmt3b (DNA methyltransferase 3B)	3	39.6	58.6
32	Usp25 (ubiquitin specific peptidase 25)	1	79.4	69.6
33	Usp25 (ubiquitin specific peptidase 25)	2	89.4	93
34	Usp25 (ubiquitin specific peptidase 25)	3	51.3	60.2
35	Papss1 (3'-phosphoadenosine 5'-phosphosulfate synthase 1)	1	113	93.4
36	Ampd3 (adenosine monophosphate deaminase 3)	1	103	75.5
37	Ampd3 (adenosine monophosphate deaminase 3)	2	61.3	77.7
38	Ampd3 (adenosine monophosphate deaminase 3)	3	86.4	45.3
39	Pfdn4 (prefoldin 4)	1	53.1	59.3
40	Pfdn4 (prefoldin 4)	2	32.4	59.8
41	Pfdn4 (prefoldin 4)	3	101	119
42	Tph2 (tryptophan hydroxylase 2)	1	69.5	73.9
43	Tph2 (tryptophan hydroxylase 2)	2	41.4	66
44	Tph2 (tryptophan hydroxylase 2)	3	81.7	83.7
45	Adamts3 (ADAM metallopeptidase with thrombospondin type 1 motif 3)	1	100	67.3
46	Adamts3 (ADAM metallopeptidase with thrombospondin type 1 motif 3)	2	90.2	77.5
47	Adamts3 (ADAM metallopeptidase with thrombospondin type 1 motif 3)	3	73.2	85.1
48	Qrfp (pyroglutamylated RFamide peptide)	1	46.4	24.1
49	Qrfp (pyroglutamylated RFamide peptide)	2	17.6	34.2
50	Qrfp (pyroglutamylated RFamide peptide)	3	94.5	107
51	Pepf (pepsinogen F)	1	83.8	91.1
52	Pepf (pepsinogen F)	2	68	53.1
53	Pepf (pepsinogen F)	3	88.9	79.8
54	Agps (alkylglycerone phosphate synthase)	1	200 (active)	150
55	Agps (alkylglycerone phosphate synthase)	2	65.9	124
56	Agps (alkylglycerone phosphate synthase)	3	112	123
57	Tprg1 (transformation related protein 63 regulated 1)	1	72	72.5
58	Tprg1 (transformation related protein 63 regulated 1)	2	107	88.3
59	Tprg1 (transformation related protein 63 regulated 1)	3	106	134
60	Slc39a1	1	63.4	51.6
61	Slc39a1	2	148 (active)	82
62	Slc39a1	3	137 (active)	104
63	Ssc5d (scavenger receptor cysteine rich family, 5 domains)	1	74.8	80.5
64	Ssc5d (scavenger receptor cysteine rich family, 5 domains)	2	105	58.2
65	Ssc5d (scavenger receptor cysteine rich family, 5 domains)	3	161 (active)	191
66	Rbmx (RNA binding motif protein, X chromosome)	1	78	93.3
67	Rbmx (RNA binding motif protein, X chromosome)	2	66.3	93.9

Reformatted: 6 of the entries above
gene,reagent no.,"GFP, % of control","viability (ATP), % of control"
Ceacam13 (CEA cell adhesion molecule 13),3,88.7,72.1
Cdkn1b (cyclin dependent kinase inhibitor 1B),1,53.9,64
Cdkn1b (cyclin dependent kinase inhibitor 1B),2,77.9,63
Prss35 (serine protease 35),1,71.6,105
Prss35 (serine protease 35),2,101,71.9
"Ppp1r12c (protein phosphatase 1, regulatory subunit 12C)",1,98.2,93.9

Additional reagents follow.
no.	gene	reagent no.	GFP, % of control	viability (ATP), % of control
68	Septin7 (septin 7)	1	91.9	69.1
69	Septin7 (septin 7)	2	69.7	73.6
70	Septin7 (septin 7)	3	57.5	63.3
71	Lgals7 (lectin, galactose binding, soluble 7)	1	68.9	50.8
72	Lgals7 (lectin, galactose binding, soluble 7)	2	47.8	33.1
73	Lgals7 (lectin, galactose binding, soluble 7)	3	84.1	63.6
74	Efhd2 (EF hand domain containing 2)	1	70.1	67.6
75	Efhd2 (EF hand domain containing 2)	2	59	35.4
76	Efhd2 (EF hand domain containing 2)	3	80.7	59.4
77	Stag2 (STAG2 cohesin complex component)	1	121 (active)	103
78	Stag2 (STAG2 cohesin complex component)	2	83.2	64.3
79	Stag2 (STAG2 cohesin complex component)	3	62.3	57.7
80	Tmem216 (transmembrane protein 216)	1	95.6	71.7
81	Tmem216 (transmembrane protein 216)	2	46.6	32.7
82	Tmem216 (transmembrane protein 216)	3	95.6	68.1
83	Scarf2 (scavenger receptor class F, member 2)	1	59.8	88.3
84	Scarf2 (scavenger receptor class F, member 2)	2	44.7	64.2
85	Scarf2 (scavenger receptor class F, member 2)	3	50.7	67.1
86	Nars2 (asparaginyl-tRNA synthetase 2 (mitochondrial)(putative))	1	135 (active)	81.6
87	Nars2 (asparaginyl-tRNA synthetase 2 (mitochondrial)(putative))	2	47.8	67.4
88	Nars2 (asparaginyl-tRNA synthetase 2 (mitochondrial)(putative))	3	38.9	37.4
89	Mettl17 (methyltransferase like 17)	1	58.7	59.1
90	Mettl17 (methyltransferase like 17)	2	74.6	62.4
91	Mettl17 (methyltransferase like 17)	3	54.2	70.7
92	Adad1 (adenosine deaminase domain containing 1)	1	89.6	89
93	Adad1 (adenosine deaminase domain containing 1)	2	78.6	35.9
94	Adad1 (adenosine deaminase domain containing 1)	3	72.5	72.1
95	Nup37 (nucleoporin 37)	1	71.4	47.4
96	Nup37 (nucleoporin 37)	2	53.5	71.5
97	Nup37 (nucleoporin 37)	3	65.6	56.2
98	Zfp426 (zinc finger protein 426)	1	50.9	73
99	Zfp426 (zinc finger protein 426)	2	53.8	52.4
100	Zfp426 (zinc finger protein 426)	3	78	105
101	Arhgef38 (Rho guanine nucleotide exchange factor 38)	1	98.3	59.4
102	Arhgef38 (Rho guanine nucleotide exchange factor 38)	2	86.1	83.5
103	Arhgef38 (Rho guanine nucleotide exchange factor 38)	3	172 (active)	116
104	Hoxb3 (homeobox B3)	1	56.3	77.2
105	Hoxb3 (homeobox B3)	2	30.4	34.6
106	Hoxb3 (homeobox B3)	3	70.8	92.9
107	Upk2 (uroplakin 2)	1	96	72.4
108	Upk2 (uroplakin 2)	2	56	77.3
109	Upk2 (uroplakin 2)	3	52.5	50.9
